Measurements reported in publication PMC11589570, “Critical assessment of LC3/GABARAP ligands used for degrader development and ligandability of LC3/GABARAP binding pockets” (Nature Communications, 2024).
Like-named read-outs stand apart in the source and are kept apart here. This continues a long series; more values of the same kind are listed elsewhere.

Amino acid sequences for entries named in this document (tags omitted).
UniProt P60520, whole entry: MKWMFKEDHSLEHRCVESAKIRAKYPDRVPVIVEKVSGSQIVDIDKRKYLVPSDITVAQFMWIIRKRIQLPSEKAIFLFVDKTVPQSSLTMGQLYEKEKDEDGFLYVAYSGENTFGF

Assays:
LC3B = LC3B (Homo sapiens, UniProt Q9GZQ8); conditions: LC3B:ligand molar ratio 1:2
GABARAPL2 = GABARAPL2 (Homo sapiens, UniProt P60520); conditions: GABARAPL2:ligand molar ratio 1:2

Cc1ccc(C(=O)N(CCCN)[C@@H](c2nc3cc(Cl)ccc3c(=O)n2Cc2ccccc2)C(C)C)cc1 [compound 3, (R)-N-(3-aminopropyl)-N-(1-(3-benzyl-7-chloro-4-oxo-3,4-dihydroquinazolin-2-yl)−2-methylpropyl)−4-methylbenzamide]
CSP (LC3B; LC3B residue E04, estimated): 0.002 ppm
CSP (LC3B; LC3B residue F79): 0.000141 ppm
CSP (LC3B; LC3B residue F80): 0.00142 ppm
CSP (LC3B; LC3B residue G85): 0.00447 ppm
CSP (LC3B; LC3B residue H86): 0.007 ppm
CSP (LC3B; LC3B residue I95): 0.00264 ppm
CSP (LC3B; LC3B residue K05): 0.0024 ppm
CSP (LC3B; LC3B residue L81): 0.00474 ppm
CSP (LC3B; LC3B residue L82): 0.005 ppm
CSP (LC3B; LC3B residue M88): 0.000825 ppm
CSP (LC3B; LC3B residue N84): 0.00333 ppm
CSP (LC3B; LC3B residue P94, estimated): 0.005 ppm
CSP (LC3B; LC3B residue S87): 0.00649 ppm
CSP (LC3B; LC3B residue S90): 0.005 ppm
CSP (LC3B; LC3B residue S92): 0.010 ppm
CSP (LC3B; LC3B residue T93): 0.006 ppm
CSP (LC3B; LC3B residue V83): 0.00329 ppm
CSP (LC3B; LC3B residue V89): 0.005 ppm
CSP (LC3B; LC3B residue V91, estimated): 0.005 ppm
CSP (GABARAPL2; residue F5, estimated): 0.006 ppm
CSP (GABARAPL2; residue G92): 0.00146 ppm
CSP (GABARAPL2; residue K82, estimated): 0.002 ppm
CSP (GABARAPL2; residue L89): 0.00141 ppm
CSP (GABARAPL2; residue L94): 0.003 ppm
CSP (GABARAPL2; residue M4, estimated): 0.006 ppm
CSP (GABARAPL2; residue M91): 0.001 ppm
CSP (GABARAPL2; residue P85, estimated): 0.002 ppm
CSP (GABARAPL2; residue Q86): 0.000283 ppm
CSP (GABARAPL2; residue Q93): 0.00214 ppm
CSP (GABARAPL2; residue S87): 0.0011 ppm
CSP (GABARAPL2; residue S88): 0.000283 ppm
CSP (GABARAPL2; residue T83): 0.00142 ppm
CSP (GABARAPL2; residue T90): 0.000566 ppm
CSP (GABARAPL2; residue V84): 0.00142 ppm
CSP (GABARAPL2; residue Y95): 0.000721 ppm

O=C1Nc2ccc(I)cc2C1=Cc1cc(Br)c(O)c(Br)c1 [compound 4]
CSP (LC3B; LC3B residue E04, estimated): 0.002 ppm
CSP (LC3B; LC3B residue F79): 0.00224 ppm
CSP (LC3B; LC3B residue F80): 0.003 ppm
CSP (LC3B; LC3B residue G85): 0.030 ppm
CSP (LC3B; LC3B residue H86): 0.023 ppm
CSP (LC3B; LC3B residue I95): 0.029 ppm
CSP (LC3B; LC3B residue K05): 0.00122 ppm
CSP (LC3B; LC3B residue L81): 0.024 ppm
CSP (LC3B; LC3B residue L82): 0.028 ppm
CSP (LC3B; LC3B residue M88): 0.00472 ppm
CSP (LC3B; LC3B residue N84): 0.016 ppm
CSP (LC3B; LC3B residue P94, estimated): 0.032 ppm
CSP (LC3B; LC3B residue S87): 0.067 ppm
CSP (LC3B; LC3B residue S90): 0.034 ppm
CSP (LC3B; LC3B residue S92): 0.069 ppm
CSP (LC3B; LC3B residue T93): 0.037 ppm
CSP (LC3B; LC3B residue V83): 0.060 ppm
CSP (LC3B; LC3B residue V89): 0.029 ppm
CSP (LC3B; LC3B residue V91, estimated): 0.045 ppm
CSP (GABARAPL2; residue F5, estimated): 0.010 ppm
CSP (GABARAPL2; residue G92): 0.015 ppm
CSP (GABARAPL2; residue K82, estimated): 0.020 ppm
CSP (GABARAPL2; residue L89): 0.010 ppm
CSP (GABARAPL2; residue L94): 0.023 ppm
CSP (GABARAPL2; residue M4, estimated): 0.010 ppm
CSP (GABARAPL2; residue M91): 0.019 ppm
CSP (GABARAPL2; residue P85, estimated): 0.010 ppm
CSP (GABARAPL2; residue Q86): 0.00472 ppm
CSP (GABARAPL2; residue Q93): 0.019 ppm
CSP (GABARAPL2; residue S87): 0.000707 ppm
CSP (GABARAPL2; residue S88): 0.008 ppm
CSP (GABARAPL2; residue T83): 0.023 ppm
CSP (GABARAPL2; residue T90): 0.010 ppm
CSP (GABARAPL2; residue V84): 0.00428 ppm
CSP (GABARAPL2; residue Y95): 0.004 ppm
